# Measurements from the supplement of paper PMC10849652.
# Protein sequences, listed by entry. Tags and fused reporters are not part of them. Lines headed by an entry give the natural chain unless they say otherwise; changes in a name come on top.
# UniProt Q14203, whole entry, looked up: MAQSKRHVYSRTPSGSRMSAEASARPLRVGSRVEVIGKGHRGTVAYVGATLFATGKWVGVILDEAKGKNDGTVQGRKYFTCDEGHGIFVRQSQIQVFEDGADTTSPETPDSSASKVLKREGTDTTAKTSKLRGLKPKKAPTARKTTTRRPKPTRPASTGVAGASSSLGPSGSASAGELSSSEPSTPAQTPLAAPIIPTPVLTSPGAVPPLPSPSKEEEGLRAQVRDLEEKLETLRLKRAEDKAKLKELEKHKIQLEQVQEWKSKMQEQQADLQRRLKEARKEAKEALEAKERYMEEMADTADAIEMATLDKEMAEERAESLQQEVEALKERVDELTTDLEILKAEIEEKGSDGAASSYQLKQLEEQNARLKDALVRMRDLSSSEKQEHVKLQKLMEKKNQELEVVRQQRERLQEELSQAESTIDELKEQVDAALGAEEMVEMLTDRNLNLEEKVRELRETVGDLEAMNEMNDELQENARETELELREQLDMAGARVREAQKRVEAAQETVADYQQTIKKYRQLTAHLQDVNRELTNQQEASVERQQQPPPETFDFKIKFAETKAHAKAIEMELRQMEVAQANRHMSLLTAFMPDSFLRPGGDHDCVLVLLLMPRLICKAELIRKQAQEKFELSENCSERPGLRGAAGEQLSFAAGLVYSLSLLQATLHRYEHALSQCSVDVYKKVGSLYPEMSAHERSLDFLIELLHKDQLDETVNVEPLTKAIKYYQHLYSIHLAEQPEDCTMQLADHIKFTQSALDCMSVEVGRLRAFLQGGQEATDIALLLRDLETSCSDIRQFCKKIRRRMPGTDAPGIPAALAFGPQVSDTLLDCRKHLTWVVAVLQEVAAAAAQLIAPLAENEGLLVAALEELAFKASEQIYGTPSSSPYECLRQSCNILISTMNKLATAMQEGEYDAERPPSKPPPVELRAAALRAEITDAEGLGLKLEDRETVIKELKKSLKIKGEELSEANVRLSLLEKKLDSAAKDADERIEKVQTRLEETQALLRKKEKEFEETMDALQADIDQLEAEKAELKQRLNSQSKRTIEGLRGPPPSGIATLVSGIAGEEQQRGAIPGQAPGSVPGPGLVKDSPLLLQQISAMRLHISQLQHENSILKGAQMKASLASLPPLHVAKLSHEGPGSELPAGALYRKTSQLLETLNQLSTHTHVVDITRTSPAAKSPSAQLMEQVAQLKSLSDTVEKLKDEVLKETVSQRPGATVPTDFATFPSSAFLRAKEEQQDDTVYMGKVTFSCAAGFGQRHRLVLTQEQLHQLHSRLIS
# UniProt Q9NV06: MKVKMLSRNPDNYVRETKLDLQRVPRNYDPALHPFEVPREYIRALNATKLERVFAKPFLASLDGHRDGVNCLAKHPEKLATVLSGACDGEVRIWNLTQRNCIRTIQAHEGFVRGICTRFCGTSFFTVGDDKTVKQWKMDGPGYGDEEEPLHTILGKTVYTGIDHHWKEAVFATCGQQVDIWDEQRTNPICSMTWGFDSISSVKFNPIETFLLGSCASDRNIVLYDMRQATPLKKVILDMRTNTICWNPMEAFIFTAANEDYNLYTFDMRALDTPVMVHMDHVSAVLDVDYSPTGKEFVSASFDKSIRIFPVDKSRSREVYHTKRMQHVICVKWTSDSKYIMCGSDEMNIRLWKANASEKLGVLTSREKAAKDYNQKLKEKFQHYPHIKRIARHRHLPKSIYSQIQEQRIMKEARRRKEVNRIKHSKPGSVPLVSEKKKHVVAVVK
# UniProt Q01459: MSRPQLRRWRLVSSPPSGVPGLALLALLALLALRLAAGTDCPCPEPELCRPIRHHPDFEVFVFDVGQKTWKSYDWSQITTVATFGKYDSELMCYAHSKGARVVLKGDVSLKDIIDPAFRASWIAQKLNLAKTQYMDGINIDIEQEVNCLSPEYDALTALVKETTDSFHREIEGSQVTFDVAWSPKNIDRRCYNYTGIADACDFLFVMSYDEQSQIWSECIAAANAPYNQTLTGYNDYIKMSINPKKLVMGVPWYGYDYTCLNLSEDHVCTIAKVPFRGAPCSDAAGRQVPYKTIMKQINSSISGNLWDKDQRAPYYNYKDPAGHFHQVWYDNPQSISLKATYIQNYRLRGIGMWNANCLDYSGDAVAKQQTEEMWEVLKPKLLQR
# UniProt Q9UK59: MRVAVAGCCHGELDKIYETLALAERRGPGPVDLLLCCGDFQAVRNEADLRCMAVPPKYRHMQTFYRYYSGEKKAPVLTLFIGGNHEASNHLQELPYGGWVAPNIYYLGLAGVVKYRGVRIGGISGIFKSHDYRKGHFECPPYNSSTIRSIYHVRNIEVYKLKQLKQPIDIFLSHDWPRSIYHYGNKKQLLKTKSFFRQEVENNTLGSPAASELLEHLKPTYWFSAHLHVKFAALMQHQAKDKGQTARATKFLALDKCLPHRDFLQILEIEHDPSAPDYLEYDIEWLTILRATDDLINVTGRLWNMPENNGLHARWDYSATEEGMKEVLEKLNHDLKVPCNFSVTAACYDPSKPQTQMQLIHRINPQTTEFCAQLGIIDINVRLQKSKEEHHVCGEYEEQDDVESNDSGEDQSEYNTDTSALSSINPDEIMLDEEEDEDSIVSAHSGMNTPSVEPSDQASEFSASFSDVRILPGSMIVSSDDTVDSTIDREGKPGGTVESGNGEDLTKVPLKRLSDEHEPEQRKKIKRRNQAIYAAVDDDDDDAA
# UniProt O60911: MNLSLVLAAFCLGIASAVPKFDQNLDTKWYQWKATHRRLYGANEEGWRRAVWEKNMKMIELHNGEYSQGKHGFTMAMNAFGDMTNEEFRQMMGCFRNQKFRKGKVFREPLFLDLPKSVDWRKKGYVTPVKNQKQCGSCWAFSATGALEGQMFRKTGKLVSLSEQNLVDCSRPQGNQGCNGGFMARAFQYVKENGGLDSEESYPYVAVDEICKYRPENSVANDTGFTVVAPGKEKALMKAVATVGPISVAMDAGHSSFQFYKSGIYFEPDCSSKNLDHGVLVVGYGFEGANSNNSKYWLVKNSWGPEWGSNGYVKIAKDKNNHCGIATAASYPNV
# UniProt Q5JQC4: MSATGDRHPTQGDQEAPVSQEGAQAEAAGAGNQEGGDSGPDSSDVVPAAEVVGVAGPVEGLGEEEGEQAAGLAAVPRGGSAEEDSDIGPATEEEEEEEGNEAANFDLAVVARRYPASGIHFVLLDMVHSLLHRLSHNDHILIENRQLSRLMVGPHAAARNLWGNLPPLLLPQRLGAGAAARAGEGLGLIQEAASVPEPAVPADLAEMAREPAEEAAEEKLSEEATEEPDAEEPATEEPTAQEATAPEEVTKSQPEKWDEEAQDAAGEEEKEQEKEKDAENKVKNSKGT
# UniProt P99999: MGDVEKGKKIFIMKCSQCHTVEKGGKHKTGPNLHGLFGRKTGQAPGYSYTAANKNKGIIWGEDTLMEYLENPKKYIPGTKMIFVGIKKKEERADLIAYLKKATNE
# UniProt P01034: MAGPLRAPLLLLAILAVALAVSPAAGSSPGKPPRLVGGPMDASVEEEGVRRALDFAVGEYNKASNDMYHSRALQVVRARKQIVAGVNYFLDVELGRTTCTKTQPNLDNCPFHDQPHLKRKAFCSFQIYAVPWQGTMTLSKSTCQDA
# UniProt P07108: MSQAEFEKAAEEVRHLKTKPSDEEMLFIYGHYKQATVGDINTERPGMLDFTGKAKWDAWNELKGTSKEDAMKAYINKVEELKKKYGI
# UniProt O75935, whole entry, looked up: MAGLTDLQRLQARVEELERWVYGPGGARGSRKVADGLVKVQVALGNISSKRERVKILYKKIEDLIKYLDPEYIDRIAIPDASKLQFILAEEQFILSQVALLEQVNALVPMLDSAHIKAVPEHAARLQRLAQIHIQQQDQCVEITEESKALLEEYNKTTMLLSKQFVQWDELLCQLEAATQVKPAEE
# UniProt Q9NRF8: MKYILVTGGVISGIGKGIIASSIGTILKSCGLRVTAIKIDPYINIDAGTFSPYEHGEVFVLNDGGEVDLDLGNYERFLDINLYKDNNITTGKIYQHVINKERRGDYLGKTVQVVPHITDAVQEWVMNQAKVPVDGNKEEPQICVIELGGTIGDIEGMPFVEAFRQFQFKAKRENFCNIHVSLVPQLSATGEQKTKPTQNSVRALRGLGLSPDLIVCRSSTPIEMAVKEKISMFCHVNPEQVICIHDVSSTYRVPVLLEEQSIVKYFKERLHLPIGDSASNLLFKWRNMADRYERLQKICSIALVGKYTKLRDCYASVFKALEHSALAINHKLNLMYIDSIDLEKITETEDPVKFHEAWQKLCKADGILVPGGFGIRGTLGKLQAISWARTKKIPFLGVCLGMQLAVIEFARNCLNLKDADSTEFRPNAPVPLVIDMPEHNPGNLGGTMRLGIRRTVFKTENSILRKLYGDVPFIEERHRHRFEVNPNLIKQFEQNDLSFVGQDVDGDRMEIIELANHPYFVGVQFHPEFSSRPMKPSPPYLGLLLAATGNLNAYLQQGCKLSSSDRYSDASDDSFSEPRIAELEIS
# UniProt O60716: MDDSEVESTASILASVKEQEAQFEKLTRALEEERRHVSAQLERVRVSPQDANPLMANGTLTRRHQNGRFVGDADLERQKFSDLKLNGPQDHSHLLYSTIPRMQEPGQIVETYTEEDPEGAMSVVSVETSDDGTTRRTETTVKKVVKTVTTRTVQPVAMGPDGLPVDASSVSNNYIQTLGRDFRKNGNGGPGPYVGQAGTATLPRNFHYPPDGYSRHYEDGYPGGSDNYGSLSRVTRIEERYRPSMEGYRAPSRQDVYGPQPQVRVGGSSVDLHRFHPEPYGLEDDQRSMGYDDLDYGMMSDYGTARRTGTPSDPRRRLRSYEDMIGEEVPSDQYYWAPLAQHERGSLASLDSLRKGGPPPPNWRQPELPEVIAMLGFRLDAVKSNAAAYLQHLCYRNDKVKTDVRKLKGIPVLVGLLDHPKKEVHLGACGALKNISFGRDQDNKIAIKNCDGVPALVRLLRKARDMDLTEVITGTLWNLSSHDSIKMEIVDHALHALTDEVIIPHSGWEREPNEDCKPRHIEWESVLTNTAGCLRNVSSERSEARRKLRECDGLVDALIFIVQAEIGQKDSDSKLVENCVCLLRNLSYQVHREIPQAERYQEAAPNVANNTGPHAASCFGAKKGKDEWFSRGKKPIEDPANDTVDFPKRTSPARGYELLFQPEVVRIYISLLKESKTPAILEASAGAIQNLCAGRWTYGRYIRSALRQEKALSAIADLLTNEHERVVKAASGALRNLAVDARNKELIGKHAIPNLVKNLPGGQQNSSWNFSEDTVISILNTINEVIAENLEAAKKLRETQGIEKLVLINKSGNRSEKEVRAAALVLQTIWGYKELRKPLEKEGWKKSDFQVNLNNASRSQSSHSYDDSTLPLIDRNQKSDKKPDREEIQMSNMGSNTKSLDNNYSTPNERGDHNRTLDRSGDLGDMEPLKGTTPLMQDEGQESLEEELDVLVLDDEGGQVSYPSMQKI
# UniProt Q8TEB1, whole entry, looked up: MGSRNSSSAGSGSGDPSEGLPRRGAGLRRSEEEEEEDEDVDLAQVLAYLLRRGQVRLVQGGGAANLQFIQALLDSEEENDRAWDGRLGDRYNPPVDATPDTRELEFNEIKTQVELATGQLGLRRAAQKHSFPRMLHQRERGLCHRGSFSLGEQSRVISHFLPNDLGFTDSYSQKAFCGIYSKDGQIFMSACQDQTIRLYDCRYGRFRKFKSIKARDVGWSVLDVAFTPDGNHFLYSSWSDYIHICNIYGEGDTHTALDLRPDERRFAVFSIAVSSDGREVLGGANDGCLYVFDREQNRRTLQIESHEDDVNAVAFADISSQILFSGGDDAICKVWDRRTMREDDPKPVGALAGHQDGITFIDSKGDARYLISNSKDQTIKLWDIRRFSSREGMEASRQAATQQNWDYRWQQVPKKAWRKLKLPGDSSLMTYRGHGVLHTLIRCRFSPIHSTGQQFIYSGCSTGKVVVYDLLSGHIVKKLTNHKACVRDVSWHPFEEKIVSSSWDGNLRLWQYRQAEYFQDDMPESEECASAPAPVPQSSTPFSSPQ
# UniProt O43310: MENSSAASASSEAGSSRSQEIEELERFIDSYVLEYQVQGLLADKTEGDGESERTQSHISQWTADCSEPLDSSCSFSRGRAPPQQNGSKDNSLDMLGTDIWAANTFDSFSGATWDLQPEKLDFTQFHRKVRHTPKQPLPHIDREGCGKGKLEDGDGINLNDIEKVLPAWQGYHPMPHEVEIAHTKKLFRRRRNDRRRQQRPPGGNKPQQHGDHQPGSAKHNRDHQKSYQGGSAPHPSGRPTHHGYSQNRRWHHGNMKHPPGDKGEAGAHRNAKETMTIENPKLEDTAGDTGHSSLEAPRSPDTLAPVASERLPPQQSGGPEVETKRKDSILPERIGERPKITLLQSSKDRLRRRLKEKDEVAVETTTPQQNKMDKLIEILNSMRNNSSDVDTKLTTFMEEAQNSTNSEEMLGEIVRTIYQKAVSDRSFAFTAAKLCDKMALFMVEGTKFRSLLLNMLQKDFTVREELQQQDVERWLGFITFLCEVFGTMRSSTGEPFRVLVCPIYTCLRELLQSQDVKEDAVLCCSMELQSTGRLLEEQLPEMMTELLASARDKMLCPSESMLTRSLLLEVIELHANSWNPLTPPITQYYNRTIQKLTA
# UniProt P51397: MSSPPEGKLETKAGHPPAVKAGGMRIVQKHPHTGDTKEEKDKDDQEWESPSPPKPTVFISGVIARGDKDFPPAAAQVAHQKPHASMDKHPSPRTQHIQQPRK
# The list shows a part of the results.
# Legend:
# Experiment in all cases: log2 fold change, soluble protein after heating vs DMSO (PISA); higher = thermal stabilisation; K562 cells, 10 uM, 30 min; active = over 0.2 and 3.5 SD of the protein, either way, in both replicates (recomputed)
# [1] = compound: NC(=O)Nc1cc(-c2cccc(F)c2)sc1C(=O)N[C@H]1CCCNC1
# Summary of the method: (§1)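 K562 cells at 2×10^6 cells/mL were treated with 10 μM compound for 30 min. Aliquots were heated for 3 min across 48°C-58°C, pooled, and extracted in PBS with 0.5% NP-40 at 4°C; soluble protein was the supernatant after 21,000xg for 90 min. Soluble protein was quantified by TMTpro 16plex LC-MS/MS with channel sums equalised, and reported as log2 fold change in thermal stability against DMSO controls, with values from duplicates.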
# [2] = compound: NC(=O)c1cnc(N[C@@H]2CCCC[C@@H]2N)nc1Nc1cccc(-n2nccn2)c1
# Summary of the method: as §1
# [3] = compound: NC1(c2ccc(-c3nc4ccn5c(=O)[nH]nc5c4cc3-c3ccccc3)cc2)CCC1
# Summary of the method: as §1
# [4] = compound: NCC(=O)Nc1ccc(-n2nc(C(F)(F)F)cc2-c2ccc3c(ccc4ccccc43)c2)cc1
# Summary of the method: as §1
# [5] = compound: Nc1ccccc1NC(=O)c1ccc(CNC(=O)OCc2cccnc2)cc1 [entinostat]
# Summary of the method: as §1
# [6] = compound: O=C(CCCCCCC(=O)Nc1ccccc1)NO [vorinostat]
# Summary of the method: as §1
# [7] = compound: O=C(CCCCCCNC(=O)c1cnc(N(c2ccccc2)c2ccccc2Cl)nc1)NO [citarinostat]
# Summary of the method: as §1
# [8] = compound: O=C(O)c1ccc2c(c1)nc(Nc1cccc(Cl)c1)c1ccncc12 [silmitasertib]
# Summary of the method: as §1
# [9] = compound: O=C1NC(=O)C(c2cnc3ccccn23)=C1c1cn2c3c(cc(F)cc13)CN(C(=O)N1CCCCC1)CC2
# Summary of the method: as §1
# [10] = compound: c1cc(OCCN2CCCCC2)cc(-c2n[nH]c3ccc(-c4nnc[nH]4)cc23)c1
# Summary of the method: as §1
# [11] = compound: c1cn2cc(-c3ccc4cn[nH]c4c3)nc(Nc3ccc(N4CCOCC4)cc3)c2n1 [entospletinib]
# Summary of the method: as §1
Target,log2 fold change [1],log2 fold change [2],log2 fold change [3],log2 fold change [4],log2 fold change [5],log2 fold change [6],log2 fold change [7],log2 fold change [8],log2 fold change [9],log2 fold change [10],log2 fold change [11]
CTSB (UniProt P07858),inactive: -0.013,inactive: -0.043,active: -0.283,inactive: 0.005,inactive: -0.047,inactive: 0.016,inactive: -0.015,inactive: 0.002,inactive: -0.067,inactive: -0.07,–
DCTN1 isoform 4 (UniProt Q14203),inactive: 0.002,inactive: -0.052,inactive: -0.033,inactive: 0.019,inactive: 0.049,inactive: 0.029,inactive: 0.007,inactive: 0.046,inactive: 0.081,inactive: -0.089,–
CYP51A1 (UniProt Q16850),inactive: -0.018,inactive: -0.004,inactive: 0.024,inactive: -0.033,inactive: -0.045,inactive: 0.119,inactive: 0.006,inactive: 0.001,active: 0.964,inactive: -0.112,–
DCAF13 (UniProt Q9NV06),inactive: -0.004,inactive: 0.049,inactive: 0.196,inactive: 0.077,inactive: -0.058,inactive: 0.004,inactive: -0.044,inactive: 0.108,inactive: 0.054,inactive: -0.077,–
CTBS (UniProt Q01459),inactive: 0.088,inactive: -0.046,inactive: -0.268,inactive: -0.002,inactive: 0.058,inactive: -0.017,inactive: -0.026,inactive: -0.003,inactive: 0.051,inactive: -0.023,–
DBT (UniProt P11182),inactive: -0.009,inactive: 0.003,inactive: 0.005,inactive: -0.021,inactive: -0.042,inactive: 0.006,inactive: -0.011,inactive: 0.027,inactive: 0.022,inactive: -0.093,–
CTSA (UniProt P10619),inactive: 0.031,inactive: 0.092,inactive: -0.067,inactive: -0.013,inactive: 0.001,inactive: -0.03,inactive: -0.005,inactive: 0.044,inactive: -0.023,inactive: 0.134,–
CTPS1 (UniProt P17812),inactive: 0.002,inactive: 0.005,inactive: -0.025,inactive: 0.023,inactive: -0.018,inactive: -0.036,inactive: 0.013,inactive: -0.005,inactive: -0.029,inactive: -0.009,inactive: -0.034
CYBC1 (UniProt Q9BQA9),inactive: -0.013,inactive: -0.029,inactive: -0.021,inactive: 0.009,inactive: -0.013,inactive: 0,inactive: 0.032,inactive: 0.053,inactive: 0.015,inactive: -0.08,inactive: -0.106
DBR1 (UniProt Q9UK59),inactive: 0.002,inactive: -0.017,inactive: -0.002,inactive: 0.052,inactive: -0.023,active: -0.215,inactive: 0.014,inactive: -0.012,inactive: -0.004,inactive: -0.072,–
CUEDC2 (UniProt Q9H467),inactive: 0,inactive: -0.105,inactive: -0.043,inactive: -0.056,inactive: -0.009,inactive: -0.039,inactive: 0.096,inactive: 0.008,inactive: -0.055,inactive: 0.002,–
CTSV (UniProt O60911),inactive: 0,inactive: -0.066,inactive: -0.296,inactive: -0.052,inactive: -0.063,inactive: -0.029,inactive: -0.008,inactive: 0.027,inactive: -0.105,inactive: 0.165,–
CT47A1 (UniProt Q5JQC4),inactive: 0.041,inactive: 0.02,inactive: -0.037,inactive: 0.07,inactive: -0.024,inactive: -0.007,inactive: 0.041,inactive: 0.022,inactive: 0.02,inactive: -0.089,inactive: 0.03
D2HGDH (UniProt Q8N465),inactive: -0.015,inactive: -0.004,inactive: -0.008,inactive: -0.014,inactive: -0.121,inactive: 0.301,inactive: 0.007,inactive: 0.012,inactive: 0.006,inactive: -0.16,inactive: 0.028
CYCS (UniProt P99999),inactive: 0.017,inactive: 0.044,inactive: 0.013,inactive: 0.019,inactive: -0.039,inactive: -0.038,inactive: 0.002,inactive: -0.02,inactive: -0.027,inactive: -0.003,inactive: 0.014
CTBP2 isoform 2 (UniProt P56545),inactive: -0.005,inactive: -0.027,inactive: -0.04,inactive: -0.072,inactive: -0.015,inactive: 0.007,inactive: 0.02,inactive: -0.035,inactive: -0.016,inactive: 0.1,inactive: -0.073
CST3 (UniProt P01034),inactive: -0.137,inactive: 0.079,inactive: 0.133,inactive: -0.017,inactive: -0.077,inactive: -0.134,inactive: -0.001,inactive: 0.074,inactive: -0.015,inactive: -0.015,inactive: -0.005
DBI isoform 5 (UniProt P07108),inactive: -0.023,inactive: 0.075,inactive: 0.023,inactive: -0.026,inactive: 0.071,inactive: -0.176,inactive: -0.002,inactive: 0.003,inactive: -0.048,inactive: -0.058,inactive: 0.076
CZIB (UniProt Q9NWV4),inactive: -0.057,inactive: -0.059,inactive: -0.031,inactive: -0.05,inactive: -0.031,inactive: 0.01,inactive: 0.025,inactive: 0.001,inactive: -0.075,inactive: -0.029,inactive: 0.039
DCTN3 (UniProt O75935),inactive: -0.054,inactive: -0.03,inactive: -0.068,inactive: -0.049,inactive: 0.043,inactive: 0.023,inactive: 0.09,inactive: 0.048,inactive: -0.002,inactive: -0.016,inactive: -0.022
DAZAP1 (UniProt Q96EP5),inactive: 0.002,inactive: 0.025,inactive: 0.15,inactive: 0.034,inactive: -0.069,inactive: 0.006,inactive: -0.038,inactive: -0.028,inactive: 0.092,inactive: -0.019,inactive: 0.071
CTPS2 (UniProt Q9NRF8),inactive: -0.012,inactive: 0.012,inactive: -0.023,inactive: 0.027,inactive: -0.023,inactive: 0.02,inactive: 0.037,inactive: 0.019,inactive: -0.02,inactive: -0.005,inactive: -0.031
CTNND1 (UniProt O60716),inactive: 0.145,inactive: 0.032,inactive: 0.219,inactive: 0.155,inactive: 0.051,inactive: 0.061,inactive: -0.086,inactive: 0.072,inactive: 0.197,inactive: -0.061,inactive: 0.166
DCAF11 (UniProt Q8TEB1),inactive: -0.059,inactive: -0.043,inactive: -0.057,inactive: 0,inactive: 0.017,inactive: -0.035,inactive: 0.054,inactive: 0.001,inactive: -0.013,inactive: -0.096,inactive: 0.007
CTIF isoform 2 (UniProt O43310),inactive: 0.016,inactive: 0.029,inactive: -0.092,inactive: -0.037,inactive: -0.025,inactive: -0.066,inactive: 0.155,inactive: 0.099,inactive: -0.064,inactive: -0.119,inactive: 0.165
DAP (UniProt P51397),inactive: -0.044,inactive: 0.049,inactive: 0.013,inactive: 0.05,inactive: -0.005,inactive: -0.058,inactive: -0.018,inactive: -0.013,inactive: 0.017,inactive: -0.036,inactive: 0.067

# Single records, as listed above. Order of values: log2 fold change [1]	log2 fold change [2]	log2 fold change [3]	log2 fold change [4]	log2 fold change [5]	log2 fold change [6]	log2 fold change [7]	log2 fold change [8]	log2 fold change [9]	log2 fold change [10]	log2 fold change [11]
# DCAF11 (UniProt Q8TEB1) is listed with inactive: -0.059	inactive: -0.043	inactive: -0.057	inactive: 0	inactive: 0.017	inactive: -0.035	inactive: 0.054	inactive: 0.001	inactive: -0.013	inactive: -0.096	inactive: 0.007
# CST3 (UniProt P01034) is listed with inactive: -0.137	inactive: 0.079	inactive: 0.133	inactive: -0.017	inactive: -0.077	inactive: -0.134	inactive: -0.001	inactive: 0.074	inactive: -0.015	inactive: -0.015	inactive: -0.005
